Laboratory results as given in PubChem BioAssay AID651640 (Broad Institute, 2012).
Screen size: about 350,000 compounds; about 6,000 (1.7%) were called active. The shares of active, inactive and inconclusive entries below differ from those in the screen. No stated cut-off is given here; in the data, active means CPE inhibition above about 20% (passing the limit was not always enough); inconclusive means no clear call, values can overlap the other calls; tested in BHK-21 cells.

test: protection of cells from dengue 2 killing – plate reader, single concentration, primary screen (AID 651640); conditions: DENV2-infected cells, cytopathic effect rescue, at 9.99 µM, stronger effect = higher value;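 further: 0% = median of neutral control wells and 100% = median of positive control wells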

| Structure (SMILES) | CPE inhibition |
| --- | --- |
| COc1ccc2c3c([nH]c2c1)[C@H](CO)N(Cc1ccccc1F)CC31CCN(C(=O)C2CCC2)CC1 | inactive: 11.3% |
| O=C(CN1CCOCC1)NCC[C@@H]1CC[C@H](NC(=O)Cc2ccccn2)[C@@H](CO)O1 | active: 22.6% |
| COc1ccc(S(=O)(=O)N(C)C[C@@H]2OCCCC[C@H](C)Oc3ccc(NC(=O)Nc4ccc(C(F)(F)F)cc4)cc3C(=O)N([C@H](C)CO)C[C@@H]2C)cc1 | inactive: 18% |
| O=[N+]([O-])c1ccccc1CN1CCN(S(=O)(=O)c2ccccc2)CC1 | inactive: 7.19% |
| Cc1ccc(NC(=O)c2cc(C(=O)c3cc(Cl)ccc3O)cn(-c3ccc(C)cc3)c2=O)cc1 | inconclusive: 24.6% |
| O=C(c1cccnc1)N1C[C@@H]2[C@H](c3ccccc31)[C@@H](CO)N2C(=O)C1CCOCC1 | inconclusive: 31.1% |
| O=C(CCC(=O)c1ccc(F)cc1)NCC1(N2CCCCC2)CCCCC1 | inconclusive: 28.2% |
| CCCC#Cc1ccc([C@@H]2[C@@H](CO)N3CCCCN(Cc4cncnc4)C[C@@H]23)cc1 | active: 26% |
| COc1ccnc(N=CNOCc2ccc(Cl)cc2)c1C#N | inconclusive: 27.5% |
| COc1ccc(OC)c(NC(=O)CCCC(=O)NC2CCCCC2)c1 | inactive: 3.58% |
| CCOc1ccc(NC(=O)N(O)C2(C#N)CCCCC2)cc1 | inconclusive: 67.6% |
| CC(C)C(=O)N1CCC2(CC1)Oc1ccc(F)cc1C(=O)C21CC(c2ccc(Cl)cc2)=NO1 (stereo not drawn) | inconclusive: 25.4% |
| CC(SC(C)C(=O)NN=Cc1cccc(Cl)c1)C(=O)NN=Cc1cccc(Cl)c1 (stereo not drawn) | inconclusive: 61.6% |
| O=C1CCC/C=C/C[C@@H](CC(=O)N(CCO)Cc2ccccc2)C(=O)NC[C@@H](c2ccccc2)O1 | inconclusive: 38.2% |
| C=CCOc1ccc(CNCc2cccnc2)cc1 | inconclusive: 32.7% |
| Cc1cc(O)c(C(C)C)cc1N=Cc1ccc(N(C)C)cc1 | inconclusive: 24.9% |
| NC(CSC1(c2ccccc2)c2ccccc2-c2ccccc21)C(=O)O (stereo not drawn) | inconclusive: 30.2% |
| C[C@@H]1CCCCO[C@@H](CN(C)Cc2ccc(C(=O)O)cc2)[C@H](C)CN([C@H](C)CO)C(=O)c2cc(NC(=O)c3ccccc3)ccc2O1 | active: 78.7% |
| CCOC(=O)c1n[nH]n2c1nc(=S)c1ccccc12 | inconclusive: 34.3% |
| Cc1cccc(S(=O)(=O)N(C)C[C@@H]2OCc3ccccc3-c3ccccc3C(=O)N([C@H](C)CO)C[C@H]2C)c1 | inconclusive: 24.8% |
| CC(C)c1cn(CC[C@H]2CC[C@H](NC(=O)C3CC3)[C@H](CO)O2)nn1 | active: 61.9% |
| CCC(=O)N1[C@@H]2c3cccc(=O)n3C[C@@H]2[C@@H](CO)[C@@H]1C(=O)NCC1CC1 | inactive: 4.46% |
| CCc1ccc(Nc2n[n+](-c3ccccc3)c(-c3ccc(C(=O)O)cc3)s2)cc1 | active: 22.9% |
| CN(CC(=O)Nc1cccc(F)c1)C(=O)c1cccc2ccccc12 | inconclusive: 64.2% |
| COc1ccc(NC(=O)Nc2ccc3c(c2)CC(=O)N([C@H](C)CO)C[C@@H](C)[C@@H](CN(C)S(=O)(=O)c2ccc(OC)cc2)O3)cc1 | active: 39.8% |

| Structure (SMILES) | CPE inhibition |
| --- | --- |
| CO[C@@H]1CN(C)C(=O)c2ccc(NC(=O)CC(F)(F)F)cc2OC[C@H](C)N(C(C)=O)C[C@@H]1C | active: 108% |
| CC(C)C#Cc1cnc2c(c1)C(=O)N([C@@H](C)CO)C[C@H](C)[C@@H](CN(C)S(=O)(=O)c1cn(C)cn1)O2 | inconclusive: 20.4% |
| CN1C(=O)c2cc(NC(=O)c3cccc(F)c3)ccc2OC[C@@H]2O[C@H](CC(=O)NCC3CC3)CC[C@H]21 | inconclusive: 22.5% |
| O=Nc1ccc(NOC(=O)c2ccccc2)cc1 | inconclusive: 49.4% |
| COc1ccc(C2CC(c3ccccc3)=NN2C(=O)COC(=O)/C=C/c2ccc(O)c(OC)c2)cc1 (stereo not drawn) | inconclusive: 20.5% |
| COc1cc(OC)cc(-c2c(-c3ccc(F)cc3)c3cc(-c4ccc5c(c4)OCCO5)ccc3n2C)c1 | inconclusive: 58.4% |
| CC(=O)n1cc([C@H]2C=C(C(=O)N3CCCCCCC3)O[C@@H](OCc3ccc(CO)cc3)C2)c2ccccc21 | inactive: -0.247% |
| Cc1cccc(CNS(=O)(=O)c2ccc(-c3cnc(C4CC4)o3)cc2)c1 | inconclusive: 57.1% |
| O=C(Nc1cccc(F)c1)C1CCCN1S(=O)(=O)c1cccc2cccnc12 (stereo not drawn) | inconclusive: 30.3% |
| CN(Cc1ccccc1)C(c1ccnc2ccccc12)c1nnnn1-c1ccc2c(c1)OCCO2 (stereo not drawn) | inactive: -3.58% |
| O=C(C[C@@H]1CC[C@@H]2[C@H](COC[C@@H](O)CN2C(=O)Nc2ccc(C(F)(F)F)cc2)O1)NC1Cc2ccccc2C1 | inactive: -0.153% |
| C[C@H]1[C@@H](Cc2cc(Cl)cc(Cl)c2)N(c2ccccc2)c2ccccc2CN1Cc1ccccc1 | active: 43.4% |
| O=C(CCCn1nnnc1CN1CCOCC1)N1CCC(c2ccccc2F)C1 (stereo not drawn) | inconclusive: 66.6% |
| Cc1ccc(S(=O)(=O)N2CCCCC2)cc1NC(=O)CCOc1ccccc1 | active: 72.4% |
| CCNC(=O)C[C@@H]1CC[C@@H]2[C@H](COc3ccc(NC(=O)Nc4cccc(F)c4)cc3C(=O)N2C)O1 | inconclusive: 20.7% |
| C/C=C/c1ccc(C2[C@@H]3CN(C(=O)NC4CCCCC4)C[C@H]2N3)cc1 (stereo partly drawn) | inconclusive: 35.2% |
| Cc1cc(Nc2cccc(Br)c2)cc(=O)n1-c1cccc(Br)c1 | inconclusive: 22.4% |
| O=C(Cn1cc(COc2c(F)c(F)c(Br)c(F)c2F)nn1)c1ccc(O)cc1 | inactive: -2.56% |
| CN(c1ccccc1)c1ncnc2c1ncn2C | active: 88.7% |
| C[C@@H]1CCCCO[C@H](CN(C)S(=O)(=O)c2ccc(Cl)cc2)[C@@H](C)CN([C@H](C)CO)C(=O)c2cc(NS(=O)(=O)c3ccc(Cl)cc3)ccc2O1 | inactive: -1.36% |
| COc1ccccc1S(=O)(=O)N1C[C@@H]2N[C@H](C1)C2c1ccc(-c2ccccc2)cc1 (stereo partly drawn) | inconclusive: 37% |
| COCC(=O)N1[C@@H](CO)[C@@H](c2ccccc2)C12CN(C(=O)c1ccc(F)cc1)C2 | inactive: 2.92% |
| CN(C)c1ccc(-c2nc3cc(N)ccc3o2)cc1 | inconclusive: 20.8% |
| CC(C)OCCCN(C)C1CCN(S(=O)(=O)c2ccc(-c3cc(C(F)(F)F)no3)s2)CC1 | inconclusive: 43.2% |
| CCOc1ccc(N(C)Cc2cc(=O)oc3ccc(OCC)cc23)cc1 | inconclusive: 46.7% |

| Structure (SMILES) | CPE inhibition |
| --- | --- |
| COc1ccc(S(=O)(=O)N(C)C[C@H]2Oc3ccc(NC(=O)c4ccncc4)cc3C(=O)N([C@H](C)CO)C[C@@H]2C)cc1 | inconclusive: 47.2% |
| CCOC(=O)c1nccnc1C(=O)Nc1cccc(C(F)(F)F)c1 | inactive: 3.2% |
| N/C(CSc1ccc(Cl)cc1)=N\NC(=O)c1ccncc1 | inactive: 5.73% |
| Cn1nnnc1SCC(=O)Nc1cc(S(=O)(=O)N2CCCC2)ccc1Cl | inactive: 4.91% |
| C[C@@H]1CN([C@@H](C)CO)C(=O)c2cc(NS(=O)(=O)c3ccccc3)ccc2O[C@@H](C)CCCCO[C@H]1CN(C)C(=O)Nc1cccc2ccccc12 | inconclusive: 54.8% |
| CCC(=O)N(C)C[C@@H]1Oc2cc(C#CCOC)ccc2S(=O)(=O)N([C@@H](C)CO)C[C@@H]1C | inconclusive: 64.9% |
| COc1ccc(CN(C)C(=O)[C@H](Cc2ccccc2)NC(=O)c2ccco2)c(OC)c1 | inconclusive: 31.3% |
| C[C@@H]1CN([C@H](C)CO)C(=O)c2cc(NC(=O)NC3CCCCC3)ccc2O[C@@H](C)CCCCO[C@@H]1CN(C)S(=O)(=O)c1cn(C)cn1 | inconclusive: 20.3% |
| CCC(=O)N1C[C@@H](C)[C@@H](OC)CN(C)C(=O)c2ccc(NC(=O)Nc3ccc(Cl)cc3)cc2OC[C@H]1C | active: 80.5% |
| C[C@H]1CN([C@@H](C)CO)C(=O)Cc2cc(NC(=O)Nc3ccc4c(c3)OCO4)ccc2O[C@H]1CN(C)Cc1ccccc1 | active: 46.1% |
| CCOC(=O)N(C)C[C@H]1OCc2cn(nn2)CCCC(=O)N([C@@H](C)CO)C[C@@H]1C | inconclusive: 54.2% |
| Cc1cccc(S(=O)(=O)N2C[C@H]3[C@@H](c4ccccc42)[C@@H](CO)N3Cc2cccnc2)c1 | active: 27.3% |
| CCOC(=O)CCCSc1nc2sc(C)c(C)c2c(=O)[nH]1 | inconclusive: 31.3% |
| CCCCCCCNC(=O)C1(CC2CC(c3cccc(Br)c3)=NO2)CCN(C(=O)C2(C)CC2)CC1 (stereo not drawn) | inactive: -15.2% |
| CCn1c(CCc2ccccc2)n[nH]c1=S | inactive: -10.9% |
| C[C@H](CO)N1C[C@H](C)[C@@H](CN(C)C(=O)CCC(F)(F)F)OCCCC[C@H](C)Oc2ccc(NC(=O)CCCN(C)C)cc2C1=O | inconclusive: 48.6% |
| Cc1cc(C)c(C)c(S(=O)(=O)N2CCCN(C)CC2)c1C | inconclusive: 31.5% |
| O=C(NN=Cc1cccc([N+](=O)[O-])c1)c1cc(-c2cccnc2)nc2ccccc12 | inconclusive: 34.4% |
| Cc1nc2c(C)cccn2c(=O)c1NC(=O)COc1ccccc1 | inconclusive: 60.8% |
| Cc1oc2cc3oc(=O)c(CCC(=O)N4C[C@H]5C[C@@H](C4)c4cccc(=O)n4C5)c(C)c3cc2c1C | inconclusive: 25.5% |
| COc1ccc(CCc2nc(-c3ccc(-n4cccc4)cc3)no2)cc1 | inconclusive: 22.2% |
| CC(=O)c1ccc(NC(=O)c2ccc3c(=O)n4c(nc3c2)CCCCC4)cc1 | inconclusive: 30.7% |
| Cc1cccc(N2CCN(C(=O)Cn3nc(C)n4cccc4c3=O)CC2C)c1 (stereo not drawn) | inactive: 1.19% |

Laid out differently: entries from further up
Structure (SMILES),CPE inhibition
CC(C)C(=O)N1CCC2(CC1)Oc1ccc(F)cc1C(=O)C21CC(c2ccc(Cl)cc2)=NO1 (stereo not drawn),inconclusive: 25.4%
CC(SC(C)C(=O)NN=Cc1cccc(Cl)c1)C(=O)NN=Cc1cccc(Cl)c1 (stereo not drawn),inconclusive: 61.6%
O=C1CCC/C=C/C[C@@H](CC(=O)N(CCO)Cc2ccccc2)C(=O)NC[C@@H](c2ccccc2)O1,inconclusive: 38.2%
C=CCOc1ccc(CNCc2cccnc2)cc1,inconclusive: 32.7%
Cc1cc(O)c(C(C)C)cc1N=Cc1ccc(N(C)C)cc1,inconclusive: 24.9%
NC(CSC1(c2ccccc2)c2ccccc2-c2ccccc21)C(=O)O (stereo not drawn),inconclusive: 30.2%
